Measurements as given in PMC7819943, “Rice protein-binding microarrays: a tool to detect cis-acting elements near promoter regions in rice”.
This is one part of the list.

Protein sequences, listed by entry. Tags and fused reporters are not part of them.
UniProt Q0JBA9, entry or part of it: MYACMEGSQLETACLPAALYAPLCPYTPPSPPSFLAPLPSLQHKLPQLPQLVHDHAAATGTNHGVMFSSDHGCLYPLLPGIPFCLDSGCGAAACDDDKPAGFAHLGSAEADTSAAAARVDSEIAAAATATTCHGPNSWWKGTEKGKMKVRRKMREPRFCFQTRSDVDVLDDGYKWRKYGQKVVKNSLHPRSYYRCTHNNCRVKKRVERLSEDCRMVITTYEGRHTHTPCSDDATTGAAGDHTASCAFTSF

Biological target: OsWRKY34 (Oryza sativa, UniProt Q0JBA9 1-250)
Experiment: protein-binding microarray (RPBM); PBS, 2% BSA, 51.3 ng/ul salmon testes DNA, 50 uM zinc acetate, 200 nM TF, 25 C, 1 h; high values mean tight binding
Details: protein: recombinant; tags: N-terminal polyhistidine and DsRed monomer fusion (pET32a); label: CyDye5-dUTP incorporated in the synthesized complementary strand; 3' TTTTT single-stranded linker to array surface; dsDNA, one strand shown
Procedure, shortened: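 Polyhistidine-tagged DsRed fusions of transcription factors, joined at the N-terminus, were expressed in E. coli BL21-CodonPlus and isolated on Ni–NTA. They were incubated at 200 nM for 1 h at 25 °C on a custom Agilent array, double-stranded and BSA-blocked, in PBS with 2% BSA, salmon testes DNA and 50 µM zinc acetate. The binding signal is per-feature fluorescence intensity (arbitrary units) read on an Axon 4000B scanner after washing.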

In order of falling binding signal:
1. TGGCACTCACCTCACCACACACCACTCCACCATCACTCACCGGAGTCACCTAGTGCAG  13800 fluorescence intensity (a.u.)
2. CTCTCTCTCTCTCTCTCTCTTTCTCTTTAGTTAATTATATCGGAGTCACCTAGTGCAG  12800 fluorescence intensity (a.u.)
3. CGTTTTTGTGTCATAACCGTCATAACGTTTCCGCTCCTGACGGAGTCACCTAGTGCAG  12300 fluorescence intensity (a.u.)
4. TTTGTGTACATGTTTCGAGACTTTTGCATTTCTATTTTTCCGGAGTCACCTAGTGCAG  11900 fluorescence intensity (a.u.)
5. TTAGGGTGAATGATGATTGGTTTTCTGGTTTATGGGGTAACGGAGTCACCTAGTGCAG  11600 fluorescence intensity (a.u.)
6. TACCACGTCGTCTTCTCTTCTCTATCTTCTCCGCCTCCGGCGGAGTCACCTAGTGCAG  11400 fluorescence intensity (a.u.)
7. CACACTCTATCTTCTCTTTCTCTTCTCCTCGCGACTCCGCCGGAGTCACCTAGTGCAG  11100 fluorescence intensity (a.u.)
8. AACTTTTTCTATGCTTTCCTTGTTAGTACTAGTTTCTGATCGGAGTCACCTAGTGCAG  10900 fluorescence intensity (a.u.)
9. GCTCTCTCTTCTCAACTATGAACCCTATTCCACGAAAGCACGGAGTCACCTAGTGCAG  10800 fluorescence intensity (a.u.)
10. TTTGTCTAGGCTTATGTCAATGTGTTATTGGTTTTGTCTTCGGAGTCACCTAGTGCAG  10500 fluorescence intensity (a.u.)
11. TATGTGCGATCATTGCGTGTGTGCTGATTTTCGGGGAGGACGGAGTCACCTAGTGCAG  10300 fluorescence intensity (a.u.)
12. CTTCACCACCACGGGATACACGCTGCTCCACAACTTCAGCCGGAGTCACCTAGTGCAG  10300 fluorescence intensity (a.u.)
13. TGTTCTTGTTTGTGTTTTCTTCTTCGTCTCCGGCGACGGCCGGAGTCACCTAGTGCAG  10000 fluorescence intensity (a.u.)
14. CAAACCAACATTTATCTTTCTTTTTTATATATGTTTTTTTCGGAGTCACCTAGTGCAG  9790 fluorescence intensity (a.u.)
15. GTACGTGAATTTTTATCATCTTTTGTCCTTTCATCTCATACGGAGTCACCTAGTGCAG  9760 fluorescence intensity (a.u.)
16. TCCGTAATATGATACATGTATACCACTTCCTCGCATTTTGCGGAGTCACCTAGTGCAG  9680 fluorescence intensity (a.u.)
17. GCCTCTCTCTCTCTCTCTCTCTCTCTCTCTCTTTCTCCGACGGAGTCACCTAGTGCAG  9660 fluorescence intensity (a.u.)
18. AAACGATTTGTGCCTACTCTACTTTCTTATCTAGGACTTCCGGAGTCACCTAGTGCAG  9580 fluorescence intensity (a.u.)
19. ATCACCACCACCACCACCACCCGCACGCGCGCCGCAACAACGGAGTCACCTAGTGCAG  9580 fluorescence intensity (a.u.)
20. ACTCTTTCACGTCACAACACTTTCACGTCCTTTGGTTAGTCGGAGTCACCTAGTGCAG  9520 fluorescence intensity (a.u.)
21. TAGCCCAAAAGTTGTGTTCATTCTCGTTACAGTCTTACAGCGGAGTCACCTAGTGCAG  9480 fluorescence intensity (a.u.)
22. GTAGACCGCCTACTATAATCTCCTCCGCCGCCGCACCTCGCGGAGTCACCTAGTGCAG  9460 fluorescence intensity (a.u.)
23. GCCAGCGAGCTGTGTTTCTTTTTTGGTGGTTCTTGTATTTCGGAGTCACCTAGTGCAG  9320 fluorescence intensity (a.u.)
24. TATGTGCTCTTTCTATTCTTTCATTTTTTATTTCATTATTCGGAGTCACCTAGTGCAG  9290 fluorescence intensity (a.u.)
25. TGTCTCACCTGTGTGCTATGACCACCAACCTGTCTGTCTCCGGAGTCACCTAGTGCAG  9080 fluorescence intensity (a.u.)
26. TCCCAAGCATTCGTTTTTATAGCCTCACCACAGCTCAAAACGGAGTCACCTAGTGCAG  8960 fluorescence intensity (a.u.)
27. GGCAACCCAACCGATTCGCGCTCACGCCACCTGCAATCCGCGGAGTCACCTAGTGCAG  8880 fluorescence intensity (a.u.)
28. CTGTCTGGTACTTGGTTGACTCTTGCACCTGCTCCATGACCGGAGTCACCTAGTGCAG  8880 fluorescence intensity (a.u.)
29. TCTTCTGGTTTCCATGTTTTTTCCCTAATGATTAGCCTCTCGGAGTCACCTAGTGCAG  8830 fluorescence intensity (a.u.)
30. GATTGACGAAGTTACCATGGACGTCTTACTGTTGACTGCGCGGAGTCACCTAGTGCAG  8780 fluorescence intensity (a.u.)
31. GGGGCGTGAATTAGATTTAACCTATATATCGGGGAGTCTACGGAGTCACCTAGTGCAG  8750 fluorescence intensity (a.u.)
32. TCGGGCAGGAGGAGGAAGTTGGGTGGTGGGGACGATTCCGCGGAGTCACCTAGTGCAG  8710 fluorescence intensity (a.u.)
33. TTTTTTTTCTGACTTTTCTTTTTTTCTTTTTCCCTGTTTTCGGAGTCACCTAGTGCAG  8700 fluorescence intensity (a.u.)
34. GACTCCCTATATCTGGTATTGCGGTTTGAAGACAAATTTGCGGAGTCACCTAGTGCAG  8690 fluorescence intensity (a.u.)
35. TATTACCTTTGTTTTTTATGATTTTTTTATAATATTTGATCGGAGTCACCTAGTGCAG  8680 fluorescence intensity (a.u.)
36. AATTTTTGCTCTCATTACCAATAGTGCTCACCACCGACTCCGGAGTCACCTAGTGCAG  8590 fluorescence intensity (a.u.)
37. TTTGCTGCATCACCATTGTCATCCATATATTCCATATTCCCGGAGTCACCTAGTGCAG  8490 fluorescence intensity (a.u.)
38. CGCTCTTGAGTCTTGACTTTCTCTGCCACGAGAGCTCATCCGGAGTCACCTAGTGCAG  8470 fluorescence intensity (a.u.)
39. TTGATTTTTTGACCTCGATCCACCATCGTCGACCTTGATCCGGAGTCACCTAGTGCAG  8450 fluorescence intensity (a.u.)
40. CAACTATCTTCTTATTTTATTCTTGGTTCTTGTGTAGAGACGGAGTCACCTAGTGCAG  8370 fluorescence intensity (a.u.)
41. GTTTGATTATTTGCTGCCTCCAGTGGGTTGGGTGTTCTTGCGGAGTCACCTAGTGCAG  8340 fluorescence intensity (a.u.)
42. GTACTTTACGCACAACTTTTTATTTTTTATATTTGCATAACGGAGTCACCTAGTGCAG  8300 fluorescence intensity (a.u.)
43. TTTCCCCGCCCACCGGTCAAACCGGTCACCCTCCCCACTACGGAGTCACCTAGTGCAG  8290 fluorescence intensity (a.u.)
44. CCATCACTTTACCCAGTAATCCACACTAGATATTTATTTTCGGAGTCACCTAGTGCAG  8260 fluorescence intensity (a.u.)
45. CTAGCCGCCCGCGCCGCCACCTCGCCGGCCTCTAGCCGCCCGGAGTCACCTAGTGCAG  8230 fluorescence intensity (a.u.)
46. AAGCAGCAGGTCACTTTCTTCCCTTCATTTCCTTAATTAACGGAGTCACCTAGTGCAG  8220 fluorescence intensity (a.u.)
47. ATCTTGCACTTTAGTCCTTCGTGTCAGGACGATATTTCATCGGAGTCACCTAGTGCAG  8192 fluorescence intensity (a.u.)
48. ATATCCCACAGCTAATTACATATATTTTTTTAATATCCTACGGAGTCACCTAGTGCAG  8170 fluorescence intensity (a.u.)
49. ATTGTGGCTGTTTTCTTCCTCTCCAGCTTCCAATCTGATCCGGAGTCACCTAGTGCAG  8140 fluorescence intensity (a.u.)
50. CACCACACCAACCGCACCAACCCCAACCCCGCGCGCGCTCCGGAGTCACCTAGTGCAG  8120 fluorescence intensity (a.u.)
51. AATTCATCATCGGCAACTTTTATCCATGGTGTTTAACAATCGGAGTCACCTAGTGCAG  8110 fluorescence intensity (a.u.)
52. GCTTCATCCGTCTTAAAATAAACCAACCACGTATCGGATACGGAGTCACCTAGTGCAG  8100 fluorescence intensity (a.u.)
53. TGCTCTACGAGTAAATGGCTTTGTTCTTTATTTTTGCTAACGGAGTCACCTAGTGCAG  8040 fluorescence intensity (a.u.)
54. CGCCGCCGCCGTCCATCGCCGCCGCCGTCGCCGCTGCCGTCGGAGTCACCTAGTGCAG  8020 fluorescence intensity (a.u.)
